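Luminescence from an EWS-FLI1 target-promoter (NR0B1) reporter, set against a CMV-promoter reporter, two days after silencing single genes in TC32 Ewing sarcoma cells. Each siRNA was applied at 20 nM. A z-score of the log NR0B1-over-CMV signal, less the median of siRNAs with the same seed; more negative means a stronger specific loss of the NR0B1 reporter.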

The strongest results of the screen are mostly left out here. Sequences are the guide (antisense) strand, without overhang.

Result for UAUUGUAGAAUCAGACUCC against TSEN15 was seed-corrected z-score 0.5573. Result for UUUGUGAUGUUGCGGAUGG against IGF2BP1 was seed-corrected z-score 0.1745. UAGAUCUCUACGUAGCUUG against KIFC1 read seed-corrected z-score 0.1121. UUUCUUUAUCCUUUAACGG against TCEAL2 gave seed-corrected z-score 0.147. With UUAAUUGCUAUAGCUGGUC against CSN3 the assay gave seed-corrected z-score 0.5935. With UAAAUAGUCUGUCACGUAG against INSR the assay gave seed-corrected z-score 0.1609. With UCUUGACUCACUGUUAUCC against SUFU the assay gave seed-corrected z-score -0.4737.

With UAGAUGAUCAGCGAGUCCG against FAM110C the assay gave seed-corrected z-score 1.245. Result for AUCACAACCACCAUGCGGC against OPN1SW was seed-corrected z-score -0.09401. UUCGUCGAUAUAAAUGGUG against TEKT1 read seed-corrected z-score 0.4133. UUCAGGUAGGAGUCGAUGC against KIAA0513 read seed-corrected z-score 0.5304. UCUGUUGACAGUAUUGCUU against FGF14-IT1 gave seed-corrected z-score -0.3129. Result for UAUCUGACAGCAAUAGAUU against TUBB3 was seed-corrected z-score -0.7469. With AAUGAAUAGGUAAUCAUCC against LRRC55 the assay gave seed-corrected z-score 0.2624.

For AAGAGGACCAUGCUCGAUC against PRNP the result was seed-corrected z-score -0.09431. UUUAGUUCUCCAUUUGAGC against GALNT8 read seed-corrected z-score -1.275. For UAAGAUACGGAAGAUGAAG against CDK16 the result was seed-corrected z-score 0.7125. For AAUAUUGUCUCAUUGAUCC against TMEM209 the result was seed-corrected z-score -0.1569. With UGAAUCUCAAGUAAGUAGC against HSPB11 the assay gave seed-corrected z-score 0.384. Result for UAACAGUAAUGAUAAAUUC against CXCL3 was seed-corrected z-score 1.409. Result for UUCAUGUAAGGGUUCAUUC against LMOD1 was seed-corrected z-score 1.289.

For UUUAUUUUAGCAUCGAUGC against C9orf78 the result was seed-corrected z-score -0.004996. With UCUUUUGCUAGCCUGGUUC against MND1 the assay gave seed-corrected z-score -0.8347. With AGCCUAAUAAGUGAUCUCC against CARF the assay gave seed-corrected z-score -0.2774. UCUUUUUCGUGACCUGACC against TMEM133 gave seed-corrected z-score 0.01382. UCCUUGCACAGCUUCGACC against TPPP gave seed-corrected z-score -0.4557. UUCUCUACUCGGCUUUUUG against BRD9 read seed-corrected z-score -0.3768. With UUUUCGUCAAUUGAGUCCC against DNAJC16 the assay gave seed-corrected z-score 0.08104.

Result for AUUCUUAAUAGGAGGAUUA against C9orf47 was seed-corrected z-score -0.4086. UUACUUGCAACUGCUAGUG against RAB3GAP2 read seed-corrected z-score -0.4136. For GAAGGUCAGAUAGCGCAGG against ERN1 the result was seed-corrected z-score -0.556. Result for AUAUAUAAGAGGGAGAGGC against LOC646513 was seed-corrected z-score 0.4342. UUUAAACCUAGCCUCCUUC against OR52A1 read seed-corrected z-score 2.057. Result for UACCUUAUCUGUAGGGCCC against TEPP was seed-corrected z-score -1.2. UUUAGUAUUAGGGCUCUCA against FIZ1 gave seed-corrected z-score 0.7971.

AAUGGUAUGGGAAUGUCGC against NAV1 gave seed-corrected z-score 0.3315. UUGCGAAUAAGAAUUCUUG against ECT2L read seed-corrected z-score 0.4067.

3 of the entries, repeated:

| strand | gene | seed-corrected z-score |
|---|---|---|
| `UUCAGGUAGGAGUCGAUGC` | KIAA0513 | 0.5304 |
| `UACCUUAUCUGUAGGGCCC` | TEPP | -1.2 |
| `AUAUAUAAGAGGGAGAGGC` | LOC646513 | 0.4342 |

From PubChem BioAssay record AID1159506 (NCATS, 2015).